Several values for one entry are separate records, joined by “and”; a condition that tells them apart may be missing. Identical values can stand only once. Screen size: about 300,000 compounds; about 5,400 (1.8%) were called active. The shares of active, inactive and inconclusive entries below differ from those in the screen. Calls follow the shape of the full dose curve; tested in HEK293 cells. Potencies of inconclusive entries are doubtful fits and often do not repeat.
Assay: qHTS for inhibitors of binding or entry into cells for Marburg Virus
Settings: Marburg virus pseudotyped entry inhibition, cell reporter; series mostly up to 37.8 µM
Potency is read from the fitted curve at half-maximal effect.

Structure (SMILES) | Potency
Cc1[nH]c2ccccc2c1/C=C(\C#N)C(=O)NC1CC1 | inconclusive: 35.5 µM [activator, single point]
Cc1ccc(-c2csc(NC(=O)COc3ccc(N(C)S(=O)(=O)c4ccc(C)cc4)cc3)n2)cc1 | inconclusive: 2.31 µM [inhibitor, partial curve]
CN1CC(C(=O)c2ccc(Cl)cc2)C(c2ccc(N(C)C)cc2)C1 (stereo unspecified) | inconclusive: 18.3 µM [inhibitor, single point]
CCC(C(=O)O)n1nc(-c2ccccc2)c2cc(Cl)ccc21 (stereo unspecified) | inconclusive: 35.5 µM [inhibitor, single point]
O=C(Nc1ccccc1Oc1cccnc1)C1CCCN(Cc2ccccc2O)C1 (stereo unspecified) | inconclusive: 3.98 µM [inhibitor, partial curve, poor fit]
COCCN(C(=O)CSc1nnc(-c2ccc(C)cc2)n1N)c1c(N)n(Cc2ccccc2)c(=O)[nH]c1=O | inconclusive: 17.8 µM [activator, single point]
O=C(CS(=O)(=O)c1ccccc1)Nc1ccccn1 | inactive
CCCCc1ccc(-c2csc(/C(C#N)=C\c3ccco3)n2)cc1 | inconclusive: 14.1 µM [activator, single point]
Clc1cccc(-c2nc3ccccn3c2Nc2ccc3c(c2)OCCO3)c1 | inactive
Cc1c(Cl)cnc(NC(=O)COC(=O)c2cccc(S(=O)(=O)N3CCc4ccccc4C3)c2)c1Cl | inactive
Cc1cc(C)nc(SCC(=O)N/N=C/c2ccc3c(c2)OCO3)n1 | inactive
Cc1csc(NC(=O)CSc2nnnn2C)n1 | inconclusive: 12.6 µM [inhibitor, single point]
O=C1c2cc(Cl)ccc2-c2c(O)cc(Cl)cc21 | inconclusive: 35.5 µM [inhibitor, partial curve, poor fit]
COc1ccc(-n2c(=O)cc(N3CCN(c4ccccc4F)CC3)[nH]c2=O)cc1 | inconclusive: 29.1 µM [activator, single point]
CC(C)CC(=O)Nc1nnc(-c2ccco2)s1 | inactive
Cc1ccc(S(=O)(=O)c2ccc(C)cc2)cc1 | inactive
CCOc1ccccc1C(=O)N/N=C/c1c[nH]c2ccccc12 | inactive
Cc1cc2nn(-c3ccc(F)cc3)nc2cc1NC(=O)c1cccc([N+](=O)[O-])c1C | inconclusive: 15.8 µM [activator, single point]
COc1cccc(OC(=O)CSc2nnc(-c3cccs3)o2)c1 | inconclusive: 11.2 µM [activator, partial curve]
Cc1ccccc1NC(=O)CNc1ccccc1N1CCCCC1 | inconclusive: 12.6 µM [inhibitor, single point]
Cc1ccc(C(OC(=O)c2ccco2)C(=O)NC2CCCC2)cc1 (stereo unspecified) | inconclusive: 10 µM [activator, partial curve]
Cc1nc2ccccn2c1C(=O)NC1CCCC1 | inconclusive: 0.631 µM [inhibitor, partial curve, poor fit]

Structure (SMILES) | Potency
CC1CCCC(C)N1C(=O)CN1C(=O)NC2(CCOc3ccccc32)C1=O (stereo unspecified) | inconclusive: 2.24 µM [inhibitor, partial curve, poor fit]
CN(Cc1ccccc1)C(=O)c1ccc([N+](=O)[O-])o1 | inactive
CCOC(=O)c1c(CN2CCN(C)CC2)n(C)c2cc(Br)c(OC)cc12 | inconclusive: 6.51 µM [inhibitor, partial curve, poor fit]
COc1ccc2nc(NC(=O)C3CCN(S(=O)(=O)c4cccc5nsnc45)CC3)sc2c1 | inconclusive: 7.08 µM [inhibitor, partial curve, poor fit]
COc1ccc(C(=O)NC(=S)Nc2cccnc2)cc1Cl | inactive
O=S(=O)(NN=Cc1ccc(O)cc1O)c1cc(Cl)c(Cl)cc1Cl | inconclusive: 7.94 µM [activator, partial curve, poor fit]
CN(NC(=O)COc1ccccc1)c1ccccc1 | inconclusive: 0.501 µM [inhibitor, partial curve, poor fit]
CC/C(=N\NC(=O)c1nnn(-c2nonc2N)c1-c1cccs1)c1ccccc1 | inconclusive: 6.31 µM [inhibitor, single point]
NS(=O)(=O)c1ccc(N=Nc2c(-c3ccccc3)[nH]n(-c3nc(-c4ccccc4)cs3)c2=O)cc1 | active: 22.4 µM
CCC(c1nnnn1Cc1ccc(OC)cc1)N1CCN(c2ccc(OC)cc2)CC1 (stereo unspecified) | inconclusive: 0.562 µM [activator, full curve, poor fit]
COc1ccc(N2CCN(C3(c4ccccc4)C(=O)c4ccccc4C3=O)CC2)cc1 | inconclusive: 10 µM [inhibitor, partial curve, poor fit]
OC(c1ccccc1)(c1ccc(Cl)cc1)C1CN2CCC1CC2 (stereo unspecified) | inconclusive: 10 µM [inhibitor, partial curve, poor fit]
CCOC(=O)c1ccc(NC(=S)NCCCN2CCCCC2)cc1 | inconclusive: 29.1 µM [inhibitor, single point]
O=C(Cc1coc2ccc3ccccc3c12)Nc1nnc(C2CC2)s1 | inconclusive: 5.62 µM [inhibitor, single point]
COc1ccc(Nc2nc3ccc(C)cn3c(=O)c2/C=N/O)cc1 | inconclusive: 2.51 µM [inhibitor, full curve]
O=C(CCN1C(=O)/C(=C\c2cccs2)SC1=S)NC1=NCCS1 | inconclusive: 0.794 µM [activator, single point]
O=C(/C=C/c1cccnc1)c1ccc(F)c(F)c1 | active: 7.08 µM
CN(c1ccc(C(=O)NCCSC(C)(C)C)cc1)S(=O)(=O)c1ccccc1 | inactive
Cc1nc2c(-c3ccc(F)cc3)c(C)nn2c(N2CCOCC2)c1C | inconclusive: 8.91 µM [inhibitor, partial curve, poor fit]
CC(=O)C1C(=O)CC(C)(O)C(C(C)=O)C1c1ccccc1 (stereo unspecified) | inactive
O=C1[C@@H]2[C@H]3[C@H](O)[C@H](O)C/C(=N/OCc4ccccc4)[C@@H]3CC[C@H]2C(=O)N1c1ccc(F)cc1F | inconclusive: 1.19 µM [activator, single point]
Cc1onc(-c2ccccc2)c1CNC(=O)Nc1cccc(Cl)c1 | inconclusive: 12.6 µM [inhibitor, partial curve, poor fit]

Structure (SMILES) | Potency
COc1ccc(N2C(=O)CC(Nc3ccc(N4CCOCC4)cc3)C2=O)c(OC)c1 (stereo unspecified) | inconclusive: 2.51 µM [activator, full curve, poor fit]
CCOc1ccc(CCNC(=O)c2cc3sccc3n2CC)cc1OCC | inconclusive: 16.4 µM [inhibitor, single point] and inconclusive: 11.2 µM [inhibitor, partial curve, poor fit]
CC1CCN(C(=O)c2ccc(S(=O)(=O)Cc3cccc(F)c3)c([N+](=O)[O-])c2)CC1 | inconclusive: 15.8 µM [inhibitor, single point]
COc1ccc(Cn2c(-c3ccc(OC)cc3)n[nH]c2=S)cc1 | inactive
COc1ccc(NC(=O)COC(=O)c2ccc(O)cc2)c([N+](=O)[O-])c1 | inconclusive: 0.562 µM [activator, full curve, poor fit]
NC(=O)N/N=C/c1cc(Br)ccc1OCC(=O)NCc1ccccc1 | inconclusive: 3.98 µM [inhibitor, partial curve, poor fit]
COc1ccccc1N1CCN(CCCNC(=O)c2nnc(Cc3ccc(F)cc3Cl)o2)CC1 | inconclusive: 17.8 µM [inhibitor, single point]
CC1=C(C#N)C(c2cccnc2)C2=C(CC(c3ccc(Cl)cc3)CC2=O)N1 (stereo unspecified) | inactive
Cc1ccccc1C(=O)NCCCNC(=O)c1ccccc1C | inactive
Cc1cccc(-c2noc(-c3ccc(NCc4ccccc4)c([N+](=O)[O-])c3)n2)c1 | inconclusive: 5.62 µM [inhibitor, single point]
Cc1nn(CC#N)c(=O)n1-c1ccc(Cl)cc1 | inconclusive: 35.5 µM [activator, single point]
CCc1nc2sc3c(c2c(=O)n1NC(=O)CCl)CCCC3 | inactive
COc1ccc(OC)c(Nc2cc(C(=O)NCCCN3CCOCC3)c3ccccc3n2)c1 | inconclusive: 35.5 µM [inhibitor, single point]
COc1cccc(/C=C2\SC(=S)N(CCC(=O)NCCc3ccc(O)cc3)C2=O)c1 | inconclusive: 35.5 µM [inhibitor, single point]
O=C(CSc1nnc(-c2c[nH]c3ccccc23)o1)N(Cc1ccccc1)c1ccc(F)cc1 | active: 18.3 µM
CN(C)S(=O)(=O)N1CCC(Oc2ccc(C(=O)NCC(C)(C)CO)cc2)CC1 | inactive
COCC(=O)Nc1nc2n(n1)C(c1ccccc1)CC(c1ccc(OC)cc1)N2 (stereo unspecified) | inconclusive: 6.51 µM [activator, single point]
O=C(NCCCN1CCN(Cc2ccccc2)CC1)C1CCN(c2nnc(-n3cccc3)s2)CC1 | inconclusive: 14.1 µM [inhibitor, partial curve, poor fit]
Cn1nnnc1SCC(=O)NCc1cccs1 | inconclusive: 10.3 µM [activator, partial curve]
CN(C)CCN(C(=O)c1ccc2c(c1)OCCO2)c1nc2cc3c(cc2s1)OCO3 | inactive
Cc1ccc(/C=C/C(=O)N2CCC(c3nc4ccccc4o3)CC2)cc1 | inactive
O=C(NCc1cccnc1)C1CCCCN1S(=O)(=O)c1ccc(F)cc1 (stereo unspecified) | inconclusive: 6.51 µM [activator, partial curve]

— PubChem BioAssay AID540276 (National Center for Advancing Translational Sciences (NCATS), 2011)
